Among the data in article PMC5007356 are binding values, retold here.

Amino acid sequences for entries named in this document (tags omitted). A change or cut given only in a name is not applied to a line headed by its entry.
UniProt O18402: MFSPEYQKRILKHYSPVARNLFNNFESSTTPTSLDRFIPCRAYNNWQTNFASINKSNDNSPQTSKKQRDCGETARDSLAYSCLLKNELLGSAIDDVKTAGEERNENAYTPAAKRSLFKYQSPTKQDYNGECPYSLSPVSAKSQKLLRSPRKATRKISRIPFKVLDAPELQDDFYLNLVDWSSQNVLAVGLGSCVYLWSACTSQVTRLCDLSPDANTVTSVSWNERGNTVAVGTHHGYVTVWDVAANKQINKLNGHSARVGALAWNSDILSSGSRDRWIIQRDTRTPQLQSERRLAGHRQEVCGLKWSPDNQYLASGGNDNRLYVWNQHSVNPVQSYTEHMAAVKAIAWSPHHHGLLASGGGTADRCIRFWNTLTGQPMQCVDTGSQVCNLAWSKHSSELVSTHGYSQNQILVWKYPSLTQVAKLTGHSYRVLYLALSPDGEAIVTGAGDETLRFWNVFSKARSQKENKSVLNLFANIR
UniProt Q9VV79: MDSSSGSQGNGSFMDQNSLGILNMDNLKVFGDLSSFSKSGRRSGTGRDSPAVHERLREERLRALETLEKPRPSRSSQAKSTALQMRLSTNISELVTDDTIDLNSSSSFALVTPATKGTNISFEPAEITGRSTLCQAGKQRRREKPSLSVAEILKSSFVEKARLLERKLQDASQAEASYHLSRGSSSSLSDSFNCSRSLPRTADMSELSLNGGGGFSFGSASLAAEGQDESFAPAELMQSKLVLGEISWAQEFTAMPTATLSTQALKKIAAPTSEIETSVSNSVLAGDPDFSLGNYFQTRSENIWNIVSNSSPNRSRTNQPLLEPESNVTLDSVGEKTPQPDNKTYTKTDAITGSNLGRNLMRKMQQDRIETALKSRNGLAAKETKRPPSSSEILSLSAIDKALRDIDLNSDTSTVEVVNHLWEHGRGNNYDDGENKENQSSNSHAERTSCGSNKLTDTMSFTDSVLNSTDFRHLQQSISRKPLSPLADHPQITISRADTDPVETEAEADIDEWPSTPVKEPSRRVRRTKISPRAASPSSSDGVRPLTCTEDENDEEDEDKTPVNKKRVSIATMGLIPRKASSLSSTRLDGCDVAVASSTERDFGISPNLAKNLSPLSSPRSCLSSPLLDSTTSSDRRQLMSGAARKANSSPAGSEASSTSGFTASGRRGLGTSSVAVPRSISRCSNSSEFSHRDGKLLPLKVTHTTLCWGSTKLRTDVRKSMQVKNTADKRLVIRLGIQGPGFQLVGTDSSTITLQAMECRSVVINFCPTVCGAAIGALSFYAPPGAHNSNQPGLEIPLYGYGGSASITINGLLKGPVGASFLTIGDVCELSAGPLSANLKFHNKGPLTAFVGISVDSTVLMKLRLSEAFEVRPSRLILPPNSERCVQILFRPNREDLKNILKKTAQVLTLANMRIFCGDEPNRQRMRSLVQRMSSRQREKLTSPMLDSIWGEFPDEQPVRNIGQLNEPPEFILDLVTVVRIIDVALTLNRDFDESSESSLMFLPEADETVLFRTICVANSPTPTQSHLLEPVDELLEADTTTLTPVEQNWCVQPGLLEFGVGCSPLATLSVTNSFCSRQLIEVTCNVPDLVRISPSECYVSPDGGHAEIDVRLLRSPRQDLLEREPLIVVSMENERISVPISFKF

In assay [1] the target is Fzr-GFP^fosmid (Drosophila melanogaster) (UniProt O18402). In words: co-IP; GFP-Trap-MA beads, extract of 30 third instar larval brains of the fzr-GFP^fosmid line; immunoblot. A general note: In western blotting, separated proteins are transferred to a membrane and probed.
Assay [2] has as its target Spd2 (endogenous) (Drosophila melanogaster (endogenous in D. mel-2 cells, embryos and larval brains)) (UniProt Q9VV79). In words: co-IP; anti-Spd2 antibody on PrA-coupled Dynabeads, wild-type D. mel-2 cell extract, 2 h at 4 °C; pre-immune rabbit serum as control; immunoblot.
The target of assay [3] is GST-Spd2 (Drosophila melanogaster). The assay is described as follows: pull-down; GST or GST-Spd2 fusion on Glutathione Sepharose beads mixed with 35S-labelled in vitro translated protein; 50 mM HEPES pH 7.5, 150 mM NaCl, 0.1% Triton X-100, 0.5 mg/ml BSA, 1 mM DTT; 30 min at room temperature; autoradiography; only the target purified.

Results are given in words; binding and its absence hold for the method and conditions named. In cells and extracts the contact can be indirect. A result given as binding can be weak or reduced; the word gives no strength.

Take Spd2 (endogenous) (from UniProt Q9VV79): in assay [1], the binding entry is listed as “binds”.

Consider “Fzr (endogenous) (from UniProt O18402 1-478)”, for which the binding entry in assay [2] was “binds”.

B1: ^35S-labelled Fzy (protein, UniProt Q24044 1-526)
chain: MSQFNFVSDLQNALIMDGETRGPAPRWKKKLEASLNGSVNTTRSVLSVSYNTSFSGVQAPTKTPGKSSEGKTKKSNTTPSKTPGGGDRFIPNRAATNFELAHFLVNKDSGDKSDEENDKATSSNSNESNVQASAHKGDRQKLISEVAQVGDSKGGRILCYQNKAPAAPETHNNPLKVVYSIKTPISTKSGSRYIPTTSERILDAPDFINDYYLNLMDWSADNIVAVALGSCVYLWNAQTGNIEQLTEFEEGDYAGSLSWIQEGQILAIGNSTGAVELWDCSKVKRLRVMDGHSARVGSLAWNSFLVSSGSRDGTIVHHDVRAREHKLSTLSGHTQEVCGLKWSTDFKYLASGGNDNLVNVWSAASGGVGTATDPLHKFNDHQAAVRALAWCPWQPSTLASGGGTADRCIKFWNVNNGTLMKSVDSKSQVCSLLFSRHYKELISAHGFANNQLTIWKYPTMVKQADLTGHTSRVLQMAMSPDGSTVISAGADETLRLWNCFAPDPLASKKAVSTSKGKQSVFRQSIR
modifications: 35S-methionine-labelled
Consider B1, for which, in assay [3], the binding result was “binds”.
